According to patent US12491217B2, “Compositions and methods for promoting healthy neural development in an unborn baby” (The Regents of the University of California, priority 2019, dated 2025):

Test: Metabolomics of fetal brain at E14.5
Format: in vivo, C57Bl/6J mice
Details: metabolite level in E14.5 fetal brain; for fold of change ABX/SPF: ANOVA contrast ABX/SPF; for fold of change GF/ABX: ANOVA contrast GF/ABX; for fold of change GF/SPF: ANOVA contrast GF/SPF; for fold of change GF/Sp: ANOVA contrast GF/Sp; for fold of change Sp/ABX: ANOVA contrast Sp/ABX; for fold of change Sp/SPF: ANOVA contrast Sp/SPF

SMILES | fold of change ABX/SPF | fold of change GF/ABX | fold of change GF/SPF | fold of change GF/Sp | fold of change Sp/ABX | fold of change Sp/SPF
N=CN[C@@H](CCC(=O)O)C(=O)O [compound 75] | 1.80 | 0.85 | 1.53 | 1.26 | 0.68 | 1.22
O=C(O)C(O)Cc1cnc[nH]1 (stereo not drawn) [compound 76] | 0.81 | 0.94 | 0.76 | 0.84 | 1.11 | 0.90
NCCC(=O)N[C@@H](Cc1cnc[nH]1)C(=O)O [compound 77] | 0.34 | 1.53 | 0.52 | 1.33 | 1.15 | 0.39
Cn1cncc1C[C@H](NC(=O)CCN)C(=O)O [compound 80] | 0.40 | 1.04 | 0.42 | 0.51 | 2.04 | 0.82
Cn1cnc(CCN)c1 [compound 82] | 0.27 | 0.82 | 0.22 | 0.53 | 1.54 | 0.42
Cn1cnc(CC(=O)O)c1 [compound 83] | 0.36 | 1.15 | 0.41 | 0.81 | 1.42 | 0.51
O=C(O)Cc1cn([C@@H]2O[C@H](CO)[C@@H](O)[C@H]2O)cn1 [compound 84] | 0.43 | 0.85 | 0.36 | 1.11 | 0.76 | 0.33
NCCCC[C@H](N)C(=O)O [compound 92] | 0.90 | 1.04 | 0.94 | 1.06 | 0.98 | 0.89
CC(=O)N[C@@H](CCCCN)C(=O)O [compound 93] | 0.49 | 1.18 | 0.58 | 0.66 | 1.80 | 0.88
CNCCCC[C@H](N)C(=O)O [compound 99] | 0.64 | 0.89 | 0.57 | 0.66 | 1.35 | 0.86
CN(C)CCCC[C@H](N)C(=O)O [compound 100] | 0.57 | 0.99 | 0.57 | 0.76 | 1.30 | 0.75
C[N+](C)(C)CCCC[C@H](N)C(=O)O [compound 101] | 0.61 | 1.06 | 0.65 | 0.90 | 1.19 | 0.73
NCC(O)CC[C@H](N)C(=O)O (stereo partly drawn) [compound 102] | 0.79 | 0.83 | 0.66 | 1.00 | 0.83 | 0.66
NCC(CC[C@H](N)C(=O)O)OC1O[C@H](CO)[C@H](O)[C@H](O)[C@H]1O (stereo partly drawn) [compound 103] | 0.77 | 1.06 | 0.82 | 0.99 | 1.07 | 0.82
NC(CCCC(=O)O)C(=O)O (stereo not drawn) [compound 105] | 1.05 | 1.02 | 1.07 | 1.27 | 0.80 | 0.85
O=C(O)CCCC(=O)C(=O)O [compound 107] | 1.09 | 1.38 | 1.50 | 1.49 | 0.93 | 1.01
O=C(O)C1CCCCN1 (stereo not drawn) [compound 113] | 0.57 | 0.83 | 0.47 | 0.63 | 1.32 | 0.75
O=C1CCCC(C(=O)O)N1 (stereo not drawn) [compound 114] | 1.02 | 1.66 | 1.70 | 1.77 | 0.94 | 0.96

SMILES | fold of change ABX/SPF | fold of change GF/ABX | fold of change GF/SPF | fold of change GF/Sp | fold of change Sp/ABX | fold of change Sp/SPF
NCCCCC(=O)O [compound 117] | 0.85 | 0.71 | 0.60 | 0.62 | 1.16 | 0.98
C[N+](C)(C)CCCCC(=O)[O-] [compound 119] | 0.09 | 1.71 | 0.16 | 0.09 | 19.45 | 1.79
N[C@@H](Cc1ccccc1)C(=O)O [compound 120] | 0.82 | 0.96 | 0.79 | 0.88 | 1.10 | 0.90
CC(=O)N[C@@H](Cc1ccccc1)C(=O)O [compound 121] | 0.83 | 0.98 | 0.81 | 0.74 | 1.31 | 1.09
CC(N[C@@H](Cc1ccccc1)C(=O)O)C(=O)O (stereo partly drawn) [compound 122] | 0.79 | 1.03 | 0.82 | 0.87 | 1.19 | 0.95
O=C(O)C(O)Cc1ccccc1 (stereo not drawn) [compound 126] | 0.60 | 0.96 | 0.58 | 0.79 | 1.22 | 0.73
N[C@@H](Cc1ccc(O)cc1)C(=O)O [compound 137] | 0.89 | 0.90 | 0.79 | 0.82 | 1.10 | 0.97
CC(=O)N[C@@H](Cc1ccc(O)cc1)C(=O)O [compound 138] | 0.75 | 0.70 | 0.52 | 0.61 | 1.14 | 0.85
O=C(O)C(O)Cc1ccc(O)cc1 (stereo not drawn) [compound 150] | 0.81 | 0.97 | 0.79 | 0.78 | 1.24 | 1.01
O=S(=O)(O)Oc1ccccc1 [compound 154] | 0.44 | 1.00 | 0.44 | 0.70 | 1.43 | 0.63
NC(Cc1ccccc1O)C(=O)O (stereo not drawn) [compound 180] | 0.95 | 1.04 | 1.00 | 1.09 | 0.96 | 0.91
COc1ccc(C[C@H](N)C(=O)O)cc1 [compound 181] | 0.91 | 1.19 | 1.07 | 1.22 | 0.97 | 0.88
O=CN[C@@H](Cc1ccccc1)C(=O)O [compound 191] | 0.40 | 1.90 | 0.77 | 0.79 | 2.41 | 0.98
N[C@@H](Cc1c([C@H]2O[C@H](CO)[C@@H](O)[C@H](O)[C@@H]2O)[nH]c2ccccc12)C(=O)O [compound 217] | 0.71 | 1.03 | 0.73 | 0.93 | 1.11 | 0.78
Nc1ccccc1C(=O)C[C@H](N)C(=O)O [compound 221] | 0.86 | 0.95 | 0.82 | 0.89 | 1.06 | 0.91
O=CNc1ccccc1C(=O)O [compound 227] | 0.34 | 2.60 | 0.88 | 1.04 | 2.49 | 0.85
O=C(O)C(O)Cc1c[nH]c2ccccc12 (stereo not drawn) [compound 241] | 0.48 | 1.24 | 0.59 | 0.80 | 1.56 | 0.74
O=S(=O)(O)Oc1c[nH]c2ccccc12 [compound 254] | 0.31 | 0.25 | 0.08 | 0.14 | 1.79 | 0.56
